## Library screen at single concentrations

From ChEMBL document CHEMBL3988442, “University of Dundee, Small-Polar-MMV Screening Library” (2021).

Mtb glucose medium: 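Phenotypic screen: M. tuberculosis growth, glucose 7H9 medium, 3 days; the read-out is not stated. Concentration: 50 µM. The record gives no direction; compounds that gave an IC50 in retests scored well above the rest, so higher reads as more growth inhibition. Of about 69,000 compounds tested this way, about 760 (1.1%) reached 50% or more in at least one test.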
Mtb cholesterol medium: 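Phenotypic screen: M. tuberculosis growth, cholesterol and DPPC medium, 4 days; the read-out is not stated. Compounds at 50 µM. Direction is inferred from retests: higher values go with more growth inhibition. Of about 69,000 compounds tested this way, about 370 (0.54%) reached 50% or more in at least one test.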

The filed quantity is “Percent Effect” (%). The controls that fix the scale are not given in the record; negative values are as filed. Compounds were drawn at random from those tested, without regard to their results. Two or more numbers in one place are separate tests of the same structure; such repeats can differ widely.

| # | compound | Mtb glucose medium | Mtb cholesterol medium |
|---|---|---|---|
| 1 | `CC(c1ccccn1)N(C)Cc1cccc(C(=O)Nc2nccn2C)c1` (configuration not stated) | -56.72 | -14.43 |
| 2 | `CC(C)NCC1(O)CCCN(CCC2CCCCC2)C1=O` (configuration not stated) | 9.875 | 3.095 and 5.876 |
| 3 | `O=C(Nc1cnn(CC(=O)N2CCCCO2)c1)c1ccccn1` | -6.989 | -17.66 |
| 4 | `O=S(=O)(c1c(F)cccc1F)N1CCCC1c1nnc2n1CCCCC2` (configuration not stated) | -10.33 | -20.59 |
| 5 | `Cc1cc(C2CCC2)nc(N2CCC3(CCCNC3=O)C2)n1` (configuration not stated) | 3.621 | 21.89 |
| 6 | `CC(Sc1n[nH]c(-c2ccc3c(c2)CCC3)n1)C(N)=O` (configuration not stated) | 7.085 | 1.576 |
| 7 | `c1cc2c(cc1C1CCCN1Cc1nnnn1C1CC1)OCCO2` (configuration not stated) | 3.803 and 4.383 | -14.85 |
| 8 | `Cc1ccc2c(c1)C1(CC2)CCN(CC(=O)O)CC1.O=C(O)C(F)(F)F` | -8.329 and -3.193 | 2.672 |
| 9 | `COC(C(=O)NCc1c(C)nc2cc(=O)[nH]n2c1C)c1ccccc1` (configuration not stated) | 18.58 | 9.411 |
| 10 | `Cc1nn(C)c(N2CCOCC2)c1CNCc1ccc(Cl)s1` | -1.28 | 3.224 |
| 11 | `CC(=O)N1CCCc2ccc(S(=O)(=O)N3CCCCC3C)cc21` (configuration not stated) | 7.973 | -8.919 |
| 12 | `NC(=O)c1cccc(C2CCN(c3ncccn3)CC2)n1` | 6.962 | 6.406 |
| 13 | `O=C(O)C(F)(F)F.O=C(O)C(F)(F)F.[H][C@@]12CCN(Cc3cnn(C)c3)[C@]1([H])CC[C@H](COCc1cccnc1)O2` | -14.13 | -10.2 and -15.9 |
| 14 | `OC(c1cccs1)C1CCN(c2ncccn2)CC1` (configuration not stated) | 20.71 and 32.39 | 5.182 |
| 15 | `Cc1nc(C2CCCCN2S(C)(=O)=O)no1` (configuration not stated) | 20.24 | 3.317 |
| 16 | `OCC1(CC2CC2)CCCN(Cc2cnc(N3CCOCC3)nc2)C1` (configuration not stated) | 0.5042 | 2.852 |
| 17 | `COCCC1(C(=O)O)CCCN(C(=O)c2cc(C)oc2C)C1` (configuration not stated) | -10.69 | -6.55 |
| 18 | `CCN(Cc1nc2c(cnn2C)c(=O)[nH]1)c1ccccc1` | -15.92 | -6.728 |
| 19 | `CN(Cc1ccoc1)C(=O)C1CCN(C(=O)C2CCCC2)CC1` | 11.97 and -0.6399 | -3.005 |
| 20 | `CN(CCc1ccccn1)C(=O)c1cnn(-c2ccccc2F)c1N` | -25.1 | -27.93 |
| 21 | `O=C(O)C(F)(F)F.[H][C@@]12COC[C@H](C(=O)N3CCOCC3)[C@]1([H])CN(c1ncc(F)cn1)C2` | 4.988 and -3.576 | -7.152 |
| 22 | `[H][C@]12CCN(C(=O)Cc3ccccc3)CC[C@@]1([H])S(=O)(=O)NC2` | -0.7122 and -10.39 | 7.104 |
| 23 | `COc1cccc(OCC(=O)NS(=O)(=O)c2ccc(Br)s2)c1` | -0.5283 | 0.1469 |
| 24 | `CC(C)Cc1cc(CNC(=O)c2cccc3c2NCCC3)no1` | 18.44 and 11.21 | 2.157 |
| 25 | `Cc1ccc(C(=O)N2CCC3(CCN(c4ccsc4)C3=O)C2)cn1.O=C(O)C(F)(F)F` (configuration not stated) | -8.688 and 2.798 | -12.4 |
| 26 | `CS(=O)(=O)NC1CCCN(C(=O)NCc2ccoc2)C1` (configuration not stated) | 1.488 | 15.83 |
| 27 | `[H][C@@]12NCCCC[C@]1([H])N(C(=O)c1ccc(OC)cc1)C[C@H]2c1ccccc1` | 4.242 | 5.265 |
| 28 | `CC(C)c1nc(N2CCC(N3CCCCCC3)CC2)c2cnn(C)c2n1` | 53.65 | 42.06 |
| 29 | `CCOc1ncccc1NC(=O)NC1CCN(C(C)=O)CC1` | 15 | 9.659 |
| 30 | `CCc1nnsc1C(=O)NCCC1CCCN(C(C)C)C1` (configuration not stated) | 2.15 and 1.384 | 12.97 |
| 31 | `CC(=O)N1CCCC1c1cccc(Cc2ccc(F)cc2)n1` (configuration not stated) | 16.85 | -0.1719 |
| 32 | `Cc1noc(C2CCN(C(=O)c3ccc(NC4CC4)nc3)CC2)n1` | 6.795 | 3.464 |
| 33 | `OC(CN1CCN(CC2CC2)CC1)c1ccc(Br)cc1` (configuration not stated) | 17.32 | 11.66 and -6.786 |
| 34 | `CC(C)n1cc(CN2CCCN(C(=O)C3CCOC3)CC2)cn1` (configuration not stated) | -40.35 and -5.75 | -15.26 |
| 35 | `CCc1n[nH]c(C2CN(CC(=O)NCCc3ccsc3)CCO2)n1` (configuration not stated) | -2.456 and 18.15 | 0.1783 |
| 36 | `Cc1noc(CNC(=O)NCC2(C)CCCc3ccccc32)n1` (configuration not stated) | 17.23 and 11.6 | 11.93 |
| 37 | `COc1ccc(CNCc2ccnc(N3CCOCC3)c2)cc1OC` | -31.1 | -14.71 |
| 38 | `O=C(O)C(F)(F)F.[H][C@@]12CCCO[C@]1([H])[C@@H](Oc1ccccn1)CN2S(=O)(=O)C1CC1` | 6.683 and 1.38 | -2.064 and -7.398 |
| 39 | `CC(C)n1ccnc1CN1CCCN(C(=O)COC2CCCC2)CC1` | 3.068 | 7.17 |
| 40 | `Cc1nc(N)nc(C)c1CC(=O)N1CCCN(CC2CC2)C(C(C)C)C1` (configuration not stated) | -16.3 | -7.853 |
| 41 | `CCN(C(=O)c1cnc(-c2ccc3c(c2)OCO3)s1)C1CC1` | 47.38 | -0.6518 |
| 42 | `Cc1nc(Nc2ccc(Cl)cn2)sc1C(=O)NC(C)C` | 14.49 | 1.029 and -0.3036 |
| 43 | `COc1ccc(OC)c(CCNC(=O)NC(C)Cn2ccnc2)c1` (configuration not stated) | -45.96 | -27.47 |
| 44 | `CN(C)c1cccc(C(=O)Nc2cnn(Cc3ccncc3)c2)c1` | 3.421 and 8.045 | 23.79 |
| 45 | `CCc1cc(=O)[nH]c2nnc(SCC(=O)N3CCC(C)CC3)n12` | -23.71 and -8.034 | -30.36 |
| 46 | `COCCN(C)C[C@@H]1CN(C(=O)c2ccc(C)c(Cl)c2)C[C@@H]1CO` | 19.9 | -5.599 |
| 47 | `CCOCC(O)CN1CCN(C(=O)CC(C)C)CC1` (configuration not stated) | -27.84 | -17.95 |
| 48 | `COC(=O)CN1CCCN(C(=O)CCOc2cccc(C)c2C)CC1` | -15.39 | 2.821 |
| 49 | `CCc1nc(CN2CCCN(CC(O)c3ccccc3)CC2)no1` (configuration not stated) | 5.439 | -25.75 |
| 50 | `COCc1cccc(NC(=O)NCCCN(C)S(C)(=O)=O)c1` | -5.811 | -32.67 |
| 51 | `COC(=O)NCC(=O)N1CCCC1c1nc(-c2ccccc2F)c[nH]1` (configuration not stated) | -7.722 | 1.294 and -2.241 |
| 52 | `N#Cc1ccsc1N1CCC(Sc2ccncc2)C1=O` (configuration not stated) | -40.81 | -19.5 |
| 53 | `Cc1ccc(-c2nc(CN3CCn4c(nnc4C4CC4)C3)co2)c(C)c1` | 36.95 | 22 |
| 54 | `Cc1cccc(N2CCc3ncnc(C4CC4)c3CC2)n1.O=C(O)C(F)(F)F` | 23.6 | 2.476 |
| 55 | `CCN1CCN(c2ccc(C(=O)NCc3cc(C)no3)cc2F)CC1` | 2.42 and -4.72 | 11.18 |
| 56 | `CC[C@@]1(O)CCN(C(=O)c2ccc(-n3cnnc3)cc2)C[C@H]1O` | 11.09 | -3.111 and 0.6245 |
| 57 | `CC(=O)Nc1ccc(SCC(O)COCc2ccc3c(c2)OCO3)cc1` (configuration not stated) | 16.79 and 2.817 | -14.48 |
| 58 | `CCc1cccc(NC(=O)NC2CCc3nc(C)nn3C2)c1` (configuration not stated) | -1.097 | 14.75 |
| 59 | `CC(=O)N1CCC(NC[C@H]2Cn3c(-c4ccccc4)cnc3CO2)CC1` | -2.285 and -8.724 | -19.2 |
| 60 | `O=C(c1ccc(C2CCCO2)s1)N1CCN(c2ccccc2F)CC1` (configuration not stated) | -0.6926 | 4.721 |
| 61 | `O=C(CN1CCS(=O)(=O)CC1)NCc1ccccc1F` | -43.66 and -4.402 | -14.77 |
| 62 | `CC(=O)N1CC(=O)N(c2cnn(C)c2)CC12CCN(CC1CC1)C2.O=C(O)C(F)(F)F` (configuration not stated) | 13.06 | -10.28 and 7.498 |
| 63 | `CC(C)N(C)Cc1cnc2n1CCN(Cc1ccc(F)cc1)C2.O=C(O)C(F)(F)F.O=C(O)C(F)(F)F` | 25.54 | -4.965 |
| 64 | `O=C(CNC(=O)c1cnccn1)Nc1ncc[nH]1` | -2.421 | 3.376 |
| 65 | `COc1ccccc1NC(=O)NC(C)c1nc[nH]n1` (configuration not stated) | -4.455 and 3.487 | 1.768 |
| 66 | `CCc1nc(-c2noc3ccc(C(=O)N(C)CCOC)cc23)co1` | -2.684 | 11.26 |
| 67 | `Fc1cccc(Oc2ccc(CNCC3CNc4ccnn4C3)cn2)c1` (configuration not stated) | 20.55 | -2.248 |
| 68 | `COCC(=O)N1CCC(O)(CN2CCN(c3ccccc3)CC2)C1` (configuration not stated) | 26.36 | 8.857 |
| 69 | `c1cc(CN2CCN(Cc3ccon3)C3(CCCCC3)C2)no1` | -18.36 and 0.8461 | 6.242 |
| 70 | `CCn1ncc2c1C(COC)CN(Cc1ccsc1)C2` (configuration not stated) | 7.545 | 0.1351 |
| 71 | `[H][C@@]12CCN(C(=O)C3CCOCC3)C[C@@]1([H])O[C@@H](c1nnc(C)[nH]1)C2` | 19.08 and -10.4 | 6.133 |
| 72 | `Cc1nsc(C(=O)NCCc2ccc(Cl)cc2)n1` | 47.89 | 62.99 |
| 73 | `Cc1nc(C)c(C(=O)N2CCc3c(C)cccc32)o1` | 33.1 and 9.726 | 12.81 |
| 74 | `CC(C)(C)c1ncc2c(n1)CN(C(=O)c1ccc3[nH]cnc3c1)C2` | -32.06 | -27.75 and 8.703 |
| 75 | `O=S(=O)(CC1CCCCC1)NCc1ccc(O)nc1` | -3.47 | -8.467 |
| 76 | `Cc1cc(C)n2cc(CN3CCCC3Cn3nc(C)nc3C)nc2n1` (configuration not stated) | -3.441 | 5.663 |
| 77 | `[H][C@@]12C[C@@H](O)C[C@]1([H])CN(Cc1cc(C(C)(C)C)ccc1OCC(N)=O)C2` | -23.55 | 10.68 and 3.252 |
| 78 | `[H][C@@]12C[C@@H](C)O[C@]1([H])CN(C(=O)c1ccncn1)C2` | 2.803 | -11.97 |
| 79 | `O=C(O)C(F)(F)F.O=C(O)C(F)(F)F.[H][C@@]12CCN(Cc3cccc(C#N)c3)[C@@]1([H])CC(=O)N2Cc1cccnc1` | -13.02 | -18.13 |
| 80 | `Cc1cc(NC(=O)Cn2cnc(-c3cccs3)cc2=O)sn1` | 1.73 and 20.25 | -4.854 |
| 81 | `COc1ccccc1CN(CCCn1ccnc1)CC1CCOC1.O=C(O)CC(O)(CC(=O)O)C(=O)O` (configuration not stated) | 3.531 | -3.022 |